# From PMC8639986
# The chains behind the UniProt entries cited, without tags or fusion partners. Where a name states a change or a piece, a line headed by the entry shows the natural chain unless it says otherwise. A line that says so, or that is headed by a name, gives the form on record, which may keep a tag or linker. Residues count along the entry.
# EphA2 wild-type intracellular region (residues S570-I976) (P29317, residues 570-976): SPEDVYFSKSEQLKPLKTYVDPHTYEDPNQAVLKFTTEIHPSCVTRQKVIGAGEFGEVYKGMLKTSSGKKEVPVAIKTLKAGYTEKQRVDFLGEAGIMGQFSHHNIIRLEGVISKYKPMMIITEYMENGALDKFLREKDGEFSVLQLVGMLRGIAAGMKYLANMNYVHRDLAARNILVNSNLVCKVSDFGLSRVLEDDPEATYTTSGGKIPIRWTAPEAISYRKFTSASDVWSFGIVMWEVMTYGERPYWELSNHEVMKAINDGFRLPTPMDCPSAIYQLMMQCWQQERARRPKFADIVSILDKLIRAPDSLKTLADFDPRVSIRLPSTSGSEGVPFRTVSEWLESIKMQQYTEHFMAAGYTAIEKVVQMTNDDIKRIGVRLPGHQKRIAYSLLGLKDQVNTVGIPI
# full-length EphA2 3E (T898E/S899E/S901E) labeled at the C-terminus with mTurquoise or EYFP (P29317, form named): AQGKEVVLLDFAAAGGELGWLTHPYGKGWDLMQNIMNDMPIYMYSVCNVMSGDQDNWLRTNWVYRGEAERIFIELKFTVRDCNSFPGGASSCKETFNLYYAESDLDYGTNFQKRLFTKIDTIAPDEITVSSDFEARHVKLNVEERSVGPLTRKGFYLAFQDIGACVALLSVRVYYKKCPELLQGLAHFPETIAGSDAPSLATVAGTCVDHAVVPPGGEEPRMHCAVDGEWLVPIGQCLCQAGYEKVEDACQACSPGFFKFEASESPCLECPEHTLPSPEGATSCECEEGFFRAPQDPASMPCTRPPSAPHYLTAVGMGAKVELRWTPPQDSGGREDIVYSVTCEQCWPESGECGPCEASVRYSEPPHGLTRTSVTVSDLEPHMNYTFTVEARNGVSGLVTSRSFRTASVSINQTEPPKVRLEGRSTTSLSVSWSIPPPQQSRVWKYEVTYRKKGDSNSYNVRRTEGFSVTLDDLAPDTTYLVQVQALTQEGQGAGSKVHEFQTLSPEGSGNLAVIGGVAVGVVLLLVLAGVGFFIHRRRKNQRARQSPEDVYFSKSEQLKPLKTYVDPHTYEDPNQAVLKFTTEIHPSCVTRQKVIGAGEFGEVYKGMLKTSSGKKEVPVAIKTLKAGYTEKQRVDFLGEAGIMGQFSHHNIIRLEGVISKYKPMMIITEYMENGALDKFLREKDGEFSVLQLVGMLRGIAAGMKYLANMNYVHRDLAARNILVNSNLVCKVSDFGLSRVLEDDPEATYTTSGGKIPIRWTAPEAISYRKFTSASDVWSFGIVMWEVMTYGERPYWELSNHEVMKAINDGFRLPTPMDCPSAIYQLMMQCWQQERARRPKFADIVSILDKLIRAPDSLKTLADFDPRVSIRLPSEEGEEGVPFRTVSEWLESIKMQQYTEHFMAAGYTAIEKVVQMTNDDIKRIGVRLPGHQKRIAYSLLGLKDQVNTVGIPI
# full-length EphA2 5A (S892A/S897A/T898A/S899A/S901A) labeled at the C-terminus with mTurquoise or EYFP (P29317, form named): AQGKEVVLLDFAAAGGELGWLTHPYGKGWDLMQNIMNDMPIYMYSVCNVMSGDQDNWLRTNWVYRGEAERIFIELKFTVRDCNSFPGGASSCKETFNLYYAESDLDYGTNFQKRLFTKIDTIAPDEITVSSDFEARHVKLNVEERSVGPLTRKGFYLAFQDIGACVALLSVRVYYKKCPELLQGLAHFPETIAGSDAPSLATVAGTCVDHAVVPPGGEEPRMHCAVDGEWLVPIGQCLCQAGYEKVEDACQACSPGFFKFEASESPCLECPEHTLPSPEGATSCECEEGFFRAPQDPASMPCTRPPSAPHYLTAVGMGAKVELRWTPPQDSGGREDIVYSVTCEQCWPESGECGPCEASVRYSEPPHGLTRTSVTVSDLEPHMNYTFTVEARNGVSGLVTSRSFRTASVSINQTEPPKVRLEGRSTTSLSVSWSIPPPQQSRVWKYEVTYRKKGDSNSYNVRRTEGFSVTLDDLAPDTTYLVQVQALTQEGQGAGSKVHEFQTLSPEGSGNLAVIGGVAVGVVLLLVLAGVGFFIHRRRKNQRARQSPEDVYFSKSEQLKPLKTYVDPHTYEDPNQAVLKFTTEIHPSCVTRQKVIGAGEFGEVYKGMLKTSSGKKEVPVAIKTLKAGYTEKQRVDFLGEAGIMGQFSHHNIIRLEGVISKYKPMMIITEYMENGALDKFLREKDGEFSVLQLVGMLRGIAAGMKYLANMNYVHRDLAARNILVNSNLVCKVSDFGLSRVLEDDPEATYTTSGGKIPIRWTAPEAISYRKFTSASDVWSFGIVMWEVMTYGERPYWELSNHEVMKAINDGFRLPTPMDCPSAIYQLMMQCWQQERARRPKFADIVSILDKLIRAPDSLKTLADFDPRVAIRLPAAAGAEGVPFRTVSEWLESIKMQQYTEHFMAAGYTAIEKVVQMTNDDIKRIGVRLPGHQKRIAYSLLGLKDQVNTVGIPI
# full-length EphA2 5E (S892E/S897E/T898E/S899E/S901E) labeled at the C-terminus with mTurquoise or EYFP (P29317, form named): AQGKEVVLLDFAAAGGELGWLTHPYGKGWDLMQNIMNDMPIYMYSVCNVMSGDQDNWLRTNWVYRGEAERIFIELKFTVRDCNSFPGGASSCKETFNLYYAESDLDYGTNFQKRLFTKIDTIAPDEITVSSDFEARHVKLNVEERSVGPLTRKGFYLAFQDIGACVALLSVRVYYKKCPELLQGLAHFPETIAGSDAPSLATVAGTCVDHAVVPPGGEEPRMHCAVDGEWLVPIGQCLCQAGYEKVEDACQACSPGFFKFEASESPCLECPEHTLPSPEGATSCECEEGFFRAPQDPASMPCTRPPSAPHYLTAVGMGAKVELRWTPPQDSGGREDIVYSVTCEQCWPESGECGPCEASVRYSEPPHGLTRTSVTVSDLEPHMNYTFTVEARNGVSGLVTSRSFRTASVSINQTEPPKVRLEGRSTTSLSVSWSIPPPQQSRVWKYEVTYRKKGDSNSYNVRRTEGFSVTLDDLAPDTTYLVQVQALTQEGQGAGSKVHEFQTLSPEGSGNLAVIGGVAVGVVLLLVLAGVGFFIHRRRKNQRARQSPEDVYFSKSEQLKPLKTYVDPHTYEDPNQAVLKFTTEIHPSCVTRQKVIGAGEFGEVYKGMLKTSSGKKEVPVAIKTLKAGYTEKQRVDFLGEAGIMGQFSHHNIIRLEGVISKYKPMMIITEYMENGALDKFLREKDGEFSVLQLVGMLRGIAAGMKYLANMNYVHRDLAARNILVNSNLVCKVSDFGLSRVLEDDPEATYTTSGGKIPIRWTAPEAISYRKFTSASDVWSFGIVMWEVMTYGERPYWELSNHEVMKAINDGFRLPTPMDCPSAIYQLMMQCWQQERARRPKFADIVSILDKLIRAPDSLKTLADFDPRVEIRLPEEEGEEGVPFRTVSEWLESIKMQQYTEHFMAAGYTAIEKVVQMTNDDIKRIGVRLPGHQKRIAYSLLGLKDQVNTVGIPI
# full-length EphA2 ASAAA (S892A/T898A/S899A/S901A) labeled at the C-terminus with mTurquoise or EYFP (P29317, form named): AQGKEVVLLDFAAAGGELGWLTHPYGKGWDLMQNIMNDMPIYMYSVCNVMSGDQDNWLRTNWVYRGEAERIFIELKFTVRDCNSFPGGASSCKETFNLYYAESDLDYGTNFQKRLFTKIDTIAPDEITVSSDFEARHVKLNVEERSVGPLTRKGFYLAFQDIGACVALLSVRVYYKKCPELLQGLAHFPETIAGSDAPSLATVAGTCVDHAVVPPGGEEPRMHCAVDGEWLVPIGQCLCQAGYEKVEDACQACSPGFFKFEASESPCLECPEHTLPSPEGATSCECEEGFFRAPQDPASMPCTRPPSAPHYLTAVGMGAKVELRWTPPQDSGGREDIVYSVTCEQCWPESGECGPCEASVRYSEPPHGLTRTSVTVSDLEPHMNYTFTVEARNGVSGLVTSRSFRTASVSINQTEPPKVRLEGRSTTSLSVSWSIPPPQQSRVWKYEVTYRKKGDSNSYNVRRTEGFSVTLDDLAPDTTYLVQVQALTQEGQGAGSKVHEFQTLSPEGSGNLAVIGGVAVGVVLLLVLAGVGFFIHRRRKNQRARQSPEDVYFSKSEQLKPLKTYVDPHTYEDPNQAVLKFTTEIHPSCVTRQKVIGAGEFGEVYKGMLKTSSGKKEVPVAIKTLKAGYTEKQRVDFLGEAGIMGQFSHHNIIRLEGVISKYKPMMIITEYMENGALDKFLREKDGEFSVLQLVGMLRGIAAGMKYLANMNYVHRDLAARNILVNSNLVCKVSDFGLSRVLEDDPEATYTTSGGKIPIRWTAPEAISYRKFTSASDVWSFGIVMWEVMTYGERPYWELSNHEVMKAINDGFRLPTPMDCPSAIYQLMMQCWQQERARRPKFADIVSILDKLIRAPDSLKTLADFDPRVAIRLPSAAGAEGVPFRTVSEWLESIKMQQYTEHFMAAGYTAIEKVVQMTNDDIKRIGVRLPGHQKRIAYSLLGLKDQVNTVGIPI
# full-length EphA2 S892A labeled at the C-terminus with mTurquoise or EYFP (P29317, form named): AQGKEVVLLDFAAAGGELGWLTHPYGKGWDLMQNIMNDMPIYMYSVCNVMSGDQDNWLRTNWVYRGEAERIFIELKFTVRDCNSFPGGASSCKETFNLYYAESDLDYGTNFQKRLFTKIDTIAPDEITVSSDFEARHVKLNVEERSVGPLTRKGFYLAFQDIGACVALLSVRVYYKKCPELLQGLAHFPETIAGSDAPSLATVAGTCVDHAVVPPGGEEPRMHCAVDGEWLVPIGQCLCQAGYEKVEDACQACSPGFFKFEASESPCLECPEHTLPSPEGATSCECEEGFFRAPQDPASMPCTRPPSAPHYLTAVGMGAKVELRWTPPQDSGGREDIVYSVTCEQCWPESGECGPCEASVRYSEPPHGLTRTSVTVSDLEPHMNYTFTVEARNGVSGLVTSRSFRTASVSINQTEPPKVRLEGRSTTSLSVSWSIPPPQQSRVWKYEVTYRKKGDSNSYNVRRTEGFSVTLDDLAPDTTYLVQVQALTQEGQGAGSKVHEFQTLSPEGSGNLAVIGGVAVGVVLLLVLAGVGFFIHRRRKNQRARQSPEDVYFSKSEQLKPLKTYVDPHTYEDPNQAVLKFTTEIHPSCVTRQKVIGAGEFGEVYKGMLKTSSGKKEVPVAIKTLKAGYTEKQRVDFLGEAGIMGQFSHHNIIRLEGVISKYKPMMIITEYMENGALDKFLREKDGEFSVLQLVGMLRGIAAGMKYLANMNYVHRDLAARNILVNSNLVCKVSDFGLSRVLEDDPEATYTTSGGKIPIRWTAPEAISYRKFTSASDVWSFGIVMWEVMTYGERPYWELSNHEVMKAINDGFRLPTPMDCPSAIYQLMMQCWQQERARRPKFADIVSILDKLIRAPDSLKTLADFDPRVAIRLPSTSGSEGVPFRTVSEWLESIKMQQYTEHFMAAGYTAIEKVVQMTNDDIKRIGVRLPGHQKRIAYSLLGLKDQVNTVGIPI
# full-length EphA2 S892E labeled at the C-terminus with mTurquoise or EYFP (P29317, form named): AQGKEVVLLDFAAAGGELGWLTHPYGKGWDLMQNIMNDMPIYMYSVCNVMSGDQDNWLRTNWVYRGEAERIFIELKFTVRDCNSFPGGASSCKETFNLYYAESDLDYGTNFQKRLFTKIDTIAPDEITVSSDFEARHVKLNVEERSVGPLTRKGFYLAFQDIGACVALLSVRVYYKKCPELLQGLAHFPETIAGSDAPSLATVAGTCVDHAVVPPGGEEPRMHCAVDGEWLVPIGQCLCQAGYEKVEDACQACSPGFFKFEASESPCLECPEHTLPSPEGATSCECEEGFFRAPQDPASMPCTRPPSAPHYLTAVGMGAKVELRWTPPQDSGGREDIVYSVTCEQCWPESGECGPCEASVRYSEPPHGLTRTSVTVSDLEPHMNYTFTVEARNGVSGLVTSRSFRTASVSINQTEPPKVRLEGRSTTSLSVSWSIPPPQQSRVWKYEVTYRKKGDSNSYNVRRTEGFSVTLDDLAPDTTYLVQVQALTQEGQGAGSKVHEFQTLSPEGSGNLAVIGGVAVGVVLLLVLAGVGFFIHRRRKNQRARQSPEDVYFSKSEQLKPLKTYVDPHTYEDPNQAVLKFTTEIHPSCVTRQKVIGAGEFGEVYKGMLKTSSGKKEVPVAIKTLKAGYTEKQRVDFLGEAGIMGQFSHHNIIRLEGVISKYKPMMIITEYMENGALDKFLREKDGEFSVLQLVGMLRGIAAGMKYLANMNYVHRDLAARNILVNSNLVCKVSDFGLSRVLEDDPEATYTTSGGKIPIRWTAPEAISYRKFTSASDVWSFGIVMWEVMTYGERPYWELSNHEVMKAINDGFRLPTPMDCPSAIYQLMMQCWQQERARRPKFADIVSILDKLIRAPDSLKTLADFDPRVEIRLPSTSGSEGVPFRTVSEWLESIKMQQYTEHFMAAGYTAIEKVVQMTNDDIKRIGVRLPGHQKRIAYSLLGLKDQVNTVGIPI
# No constants are given. Whether binding was seen depends on the method and setting. For part of these data: In cells and extracts the contact can be indirect. Some entries that bind do so weakly or less than the wild type.
# Columns and labels:
# [1] = biological target: EphA2 wild-type intracellular region (residues S570-I976) (human) (UniProt P29317); assay: SEC-MALS; Superdex 200 increase 10/300 in 20 mM HEPES pH 7.0, 150 mM NaCl; 100 µl at 3 mg/ml injected; both purified
# [2] = biological target: full-length EphA2 3E (T898E/S899E/S901E) labeled at the C-terminus with mTurquoise or EYFP (human) (UniProt P29317); assay: FRET or BRET; FSI-FRET between EphA2-mTurquoise and EphA2-EYFP in the plasma membrane of live HEK293T cells, no ligand, serum-starved, hypo-osmotic swelling; dimerization curves fitted to a monomer-dimer model (dimer to monomers)
# [3] = biological target: full-length EphA2 5A (S892A/S897A/T898A/S899A/S901A) labeled at the C-terminus with mTurquoise or EYFP (human) (UniProt P29317); assay: as above
# [4] = biological target: full-length EphA2 5E (S892E/S897E/T898E/S899E/S901E) labeled at the C-terminus with mTurquoise or EYFP (human) (UniProt P29317); assay: as above
# [5] = biological target: full-length EphA2 ASAAA (S892A/T898A/S899A/S901A) labeled at the C-terminus with mTurquoise or EYFP (human) (UniProt P29317); assay: as above
# [6] = biological target: full-length EphA2 S892A labeled at the C-terminus with mTurquoise or EYFP (human) (UniProt P29317); assay: as above
# [7] = biological target: full-length EphA2 S892E labeled at the C-terminus with mTurquoise or EYFP (human) (UniProt P29317); assay: as above
# [8] = biological target: full-length EphA2 S897A labeled at the C-terminus with mTurquoise or EYFP (human) (UniProt P29317); assay: as above
# [9] = biological target: full-length EphA2 S897E labeled at the C-terminus with mTurquoise or EYFP (human) (UniProt P29317); assay: as above
substance,measurement,setting,value
EphA2 wild-type intracellular region (residues S570-I976) (from UniProt P29317 570-976) (domain or fragment),binding,[1],no binding (tested: 3 mg/ml)
full-length EphA2 3E (T898E/S899E/S901E) labeled at the C-terminus with mTurquoise or EYFP (from UniProt P29317 24-976) (receptor),binding,[2],binds
full-length EphA2 5A (S892A/S897A/T898A/S899A/S901A) labeled at the C-terminus with mTurquoise or EYFP (from UniProt P29317 24-976) (receptor),binding,[3],binds
full-length EphA2 5E (S892E/S897E/T898E/S899E/S901E) labeled at the C-terminus with mTurquoise or EYFP (from UniProt P29317 24-976) (receptor),binding,[4],binds
full-length EphA2 ASAAA (S892A/T898A/S899A/S901A) labeled at the C-terminus with mTurquoise or EYFP (from UniProt P29317 24-976) (receptor),binding,[5],binds
full-length EphA2 S892A labeled at the C-terminus with mTurquoise or EYFP (from UniProt P29317 24-976) (receptor),binding,[6],binds
full-length EphA2 S892E labeled at the C-terminus with mTurquoise or EYFP (from UniProt P29317 24-976) (receptor),binding,[7],binds
full-length EphA2 S897A labeled at the C-terminus with mTurquoise or EYFP (from UniProt P29317 24-976) (receptor),binding,[8],binds
full-length EphA2 S897E labeled at the C-terminus with mTurquoise or EYFP (from UniProt P29317 24-976) (receptor),binding,[9],binds
